± gives the standard deviation of the averaged measurements. The list shows a part of the results, in another mix than the full data. Single values are uncertain here, since repeats match poorly. Numbered stars: 1 amine (or outer) side, 2 acyl side, 3 side chain; on linkers, the order of the positions; unused ones are H or OH. Bridge positions count the residues as written; N and C are the ends. Square brackets hold non-standard residues; d marks the D form. Peptide text beside a SMILES is read from it. I, II: the chains in the order shown. Actinocin(9to1) = Cc1c2oc3c(C)ccc(C(=O)[*:1])c3nc-2c(C(=O)[*:2])c(N)c1=O; NMeV = CN[C@H](C(=O)O)C(C)C; Sar = CNCC(=O)O
Test system: FaDu
Assay: mitochondrial oxygen consumption rate normalised to cell number, Z score over the library; higher = higher oxygen consumption (negative = OCR reduction)
Settings: treatment time 24 h, assay medium: 5 mM galactose, 5 mM pyruvate, 4 mM glutamine
Method: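 Primary screen: FaDu cells were incubated 24 h with Pharmakon 1600 / TDI oncology set compounds at 2 or 10 uM. Mitochondrial-specific OCR (basal minus 2 uM antimycin A) was measured on a Seahorse XF96 in assay medium with 5 mM galactose, 5 mM pyruvate and 4 mM glutamine, then corrected for Hoechst cell number and expressed as a Z score […]. Compounds that cut cell number by >66% were excluded. Two repeats.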

Structure (SMILES): NC(=O)C1(N2CCCCC2)CCN(CCCC(=O)c2ccc(F)cc2)CC1
- mitochondrial oxygen consumption rate normalised (2 µM): -0.684 ± 0.17

Structure (SMILES): CNC1(C)C2CCC(C2)C1(C)C (centres undefined)
- mitochondrial oxygen consumption rate normalised (2 µM): 0.723 ± 0.65

Structure (SMILES): CC[C@]12CCCN3CCc4c(n(c5ccccc45)[C@@](O)(C(=O)OC)C1)[C@@H]32
- mitochondrial oxygen consumption rate normalised (2 µM): 0.428 ± 0.86

Structure (SMILES): CCC(C)(C)c1ccc(CC(C)CN2C[C@@H](C)O[C@@H](C)C2)cc1 (some centres undefined)
- mitochondrial oxygen consumption rate normalised (2 µM): -0.57 ± 0.27

Structure (SMILES): CC1CCN(CCCC(=O)c2ccc(F)cc2)CC1
- mitochondrial oxygen consumption rate normalised (2 µM): -0.794 ± 0.38

Structure (SMILES): Nc1ccc(S(N)(=O)=O)cc1
- mitochondrial oxygen consumption rate normalised (2 µM): 0.749 ± 1.5

Structure (SMILES): CCOc1nc2cccc(C(=O)OC(C)OC(=O)OC3CCCCC3)c2n1Cc1ccc(-c2ccccc2-c2nn[nH]n2)cc1 (centres undefined)
- mitochondrial oxygen consumption rate normalised (2 µM): 0.511 ± 1.1

Structure (SMILES): CC(CCc1ccc(O)cc1)NCCc1ccc(O)c(O)c1 (centres undefined)
- mitochondrial oxygen consumption rate normalised (2 µM): -0.255 ± 0.81

Structure (SMILES): C#CC1(O)CC[C@H]2[C@@H]3CCC4=CC(=O)CC[C@@H]4[C@H]3CC[C@@]21CC (some centres undefined)
- mitochondrial oxygen consumption rate normalised (2 µM): 0.391 ± 0.065

Structure (SMILES): NC[C@H]1O[C@H](O[C@H]2[C@H](O)[C@@H](O[C@H]3O[C@H](CO)[C@@H](O)[C@H](N)[C@H]3O)[C@H](N)C[C@@H]2N)[C@H](N)[C@@H](O)[C@@H]1O
- mitochondrial oxygen consumption rate normalised (2 µM): 0.0575 ± 0.058

Structure (SMILES): CC(=O)O[C@]1(C(C)=O)CC[C@H]2[C@@H]3C=C(C)C4=CC(=O)CC[C@]4(C)[C@H]3CC[C@@]21C [Megestrol acetate]
- mitochondrial oxygen consumption rate normalised (2 µM): 0.626 ± 0.38

Structure (SMILES): CC(=O)O[C@]1(C(C)=O)CC[C@H]2[C@@H]3C=C(C)C4=CC(=O)CC[C@]4(C)[C@H]3CC[C@@]21C
- mitochondrial oxygen consumption rate normalised (2 µM): 0.922 ± 0.79

Structure (SMILES): Cc1c(C)c2c(c(C)c1O)CCC(C)(CCCC(C)CCCC(C)CCCC(C)C)O2 (stereo not drawn) [alpha-TOCHOPHEROL]
- mitochondrial oxygen consumption rate normalised (2 µM): 1.31 ± 0.98

Structure (SMILES): Nc1nc(=O)[nH]cc1F
- mitochondrial oxygen consumption rate normalised (2 µM): 0.748 ± 0.51

Structure (SMILES): Nc1nnc(-c2cccc(Cl)c2Cl)c(N)n1
- mitochondrial oxygen consumption rate normalised (2 µM): 0.251 ± 0.031

Structure (SMILES): CC[C@@]1(O)C(=O)OCc2c1cc1n(c2=O)Cc2cc3c(CN(C)C)c(O)ccc3nc2-1
- mitochondrial oxygen consumption rate normalised (10 µM): -4.46 ± 0.19

Structure (SMILES): OCC(S)CS (centres undefined)
- mitochondrial oxygen consumption rate normalised (2 µM): 0.371 ± 1.3

Structure (SMILES): O=C(c1cccnc1)N1CCOCC1
- mitochondrial oxygen consumption rate normalised (2 µM): 0.446 ± 1.1

Structure (SMILES): COc1ccc2cc3[n+](cc2c1OC)CCc1cc2c(cc1-3)OCO2
- mitochondrial oxygen consumption rate normalised (2 µM): -3.127 ± 0.03
- mitochondrial oxygen consumption rate normalised (10 µM): -5.87 ± 0.012

Structure (SMILES): COc1ccc2c(c1)c(CC(=O)OCC(=O)O)c(C)n2C(=O)c1ccc(Cl)cc1
- mitochondrial oxygen consumption rate normalised (2 µM): 0.0192 ± 0.44

Structure (SMILES): Cc1c2oc3c(C)ccc(C(=O)N[C@@H]4C(=O)N[C@H](C(C)C)C(=O)N5CCC[C@H]5C(=O)N(C)CC(=O)N(C)[C@@H](C(C)C)C(=O)O[C@@H]4C)c3nc-2c(C(=O)N[C@@H]2C(=O)N[C@H](C(C)C)C(=O)N3CCC[C@H]3C(=O)N(C)CC(=O)N(C)[C@@H](C(C)C)C(=O)O[C@@H]2C)c(N)c1=O (I: T[dV]P[Sar][NMeV] / II: T[dV]P[Sar][NMeV]; ester I:1-I:C, II:1-II:C; linker I:N-II:N via Actinocin(9to1))
- mitochondrial oxygen consumption rate normalised (2 µM): -3.53 ± 0.23
- mitochondrial oxygen consumption rate normalised (10 µM): -4.48 ± 0.4

Structure (SMILES): CC(=O)NC[C@H]1CN(c2ccc(N3CCOCC3)c(F)c2)C(=O)O1
- mitochondrial oxygen consumption rate normalised (2 µM): -0.179 ± 0.69

Structure (SMILES): O=C1C(O)=C(O)C(=O)C(O)=C1O
- mitochondrial oxygen consumption rate normalised (2 µM): 0.302 ± 1.1
- mitochondrial oxygen consumption rate normalised (10 µM): 0.611 ± 0.72

Structure (SMILES): Cc1nccn1CC1CCc2c(c3ccccc3n2C)C1=O (centres undefined)
- mitochondrial oxygen consumption rate normalised (2 µM): 0.447 ± 0.81

Structure (SMILES): NC(=O)c1cc[n+](CC2=C(C(=O)[O-])N3C(=O)[C@@H](NC(=O)Cc4cccs4)[C@H]3SC2)cc1
- mitochondrial oxygen consumption rate normalised (2 µM): 0.401 ± 0.17

Structure (SMILES): CC1=C(C(=O)O)N2C(=O)[C@@H](NC(=O)[C@H](N)c3ccccc3)[C@H]2SC1
- mitochondrial oxygen consumption rate normalised (2 µM): 1.31 ± 0.22

Structure (SMILES): CC[C@H](C)C(=O)O[C@H]1C[C@H](O)C=C2C=C[C@H](C)[C@H](CC[C@@H](O)C[C@@H](O)CC(=O)O)[C@H]21
- mitochondrial oxygen consumption rate normalised (2 µM): -1.21 ± 0.66

Structure (SMILES): CC(C)(C)NCC(O)COc1cccc2c1CC(O)C(O)C2 (centres undefined)
- mitochondrial oxygen consumption rate normalised (2 µM): 0.907 ± 2.2

Structure (SMILES): O=C(CCCCC(=O)Nc1c(I)cc(I)c(C(=O)O)c1I)Nc1c(I)cc(I)c(C(=O)O)c1I
- mitochondrial oxygen consumption rate normalised (2 µM): -0.131 ± 0.5

Structure (SMILES): CNCC[C@@H](Oc1ccccc1C)c1ccccc1
- mitochondrial oxygen consumption rate normalised (2 µM): 0.146 ± 0.67

Structure (SMILES): Cc1ccc(C(=O)C(C)CN2CCCCC2)cc1 (centres undefined)
- mitochondrial oxygen consumption rate normalised (2 µM): -0.627 ± 0.62

Structure (SMILES): O=C(O)Cc1cc(I)c(Oc2ccc(O)c(I)c2)c(I)c1
- mitochondrial oxygen consumption rate normalised (2 µM): 0.261 ± 0.99

Structure (SMILES): COCCCOc1ccnc(C[S+]([O-])c2nc3ccccc3[nH]2)c1C (centres undefined)
- mitochondrial oxygen consumption rate normalised (2 µM): -0.209 ± 0.84

Structure (SMILES): C[C@@H](Oc1cc(-c2cnn(C3CCNCC3)c2)cnc1N)c1c(Cl)ccc(F)c1Cl [Crizotinib]
- mitochondrial oxygen consumption rate normalised (2 µM): 0.539 ± 0.26

Structure (SMILES): N=C(N)N1CCc2ccccc2C1
- mitochondrial oxygen consumption rate normalised (2 µM): 0.17 ± 0.53

Structure (SMILES): CC1=CC(=O)c2ccccc2C1=O
- mitochondrial oxygen consumption rate normalised (2 µM): 0.331 ± 0.51

Structure (SMILES): CC(=O)/N=c1/sc(S(N)(=O)=O)nn1C
- mitochondrial oxygen consumption rate normalised (2 µM): 0.678 ± 0.67

Structure (SMILES): CCCc1nc2c(C)cc(-c3nc4ccccc4n3C)cc2n1Cc1ccc(-c2ccccc2C(=O)O)cc1
- mitochondrial oxygen consumption rate normalised (2 µM): 0.00631 ± 0.92

Structure (SMILES): CCCCOC(=O)c1ccc(O)cc1
- mitochondrial oxygen consumption rate normalised (2 µM): -0.634 ± 2

Structure (SMILES): C#C[C@]1(OC(C)=O)CC[C@H]2[C@@H]3CCC4=CC(=O)CC[C@@H]4[C@H]3CC[C@@]21C
- mitochondrial oxygen consumption rate normalised (2 µM): -1.39 ± 0.79

Structure (SMILES): COCCCOc1cc(C[C@@H](C[C@H](N)[C@@H](O)C[C@H](C(=O)NCC(C)(C)C(N)=O)C(C)C)C(C)C)ccc1OC
- mitochondrial oxygen consumption rate normalised (2 µM): 0.167 ± 0.15
- mitochondrial oxygen consumption rate normalised (10 µM): 0.624 ± 0.066

Structure (SMILES): CCCCC1C(=O)N(c2ccccc2)N(c2ccccc2)C1=O
- mitochondrial oxygen consumption rate normalised (2 µM): -0.557 ± 0.3

Structure (SMILES): O=C(Nc1ccccc1)OCC(CN1CCCCC1)OC(=O)Nc1ccccc1 (centres undefined)
- mitochondrial oxygen consumption rate normalised (2 µM): 0.191 ± 0.48

Structure (SMILES): N=C(N)c1ccc(N=NNc2ccc(C(=N)N)cc2)cc1
- mitochondrial oxygen consumption rate normalised (2 µM): -0.858 ± 0.17

Structure (SMILES): CO/N=C(\C(=O)N[C@@H]1C(=O)N2C(C(=O)O)=C(CSC(=O)c3ccco3)CS[C@H]12)c1csc(N)n1
- mitochondrial oxygen consumption rate normalised (2 µM): -0.274 ± 0.7

Structure (SMILES): CCCC(=O)Nc1ccc(OCC(O)CNC(C)C)c(C(C)=O)c1 (centres undefined)
- mitochondrial oxygen consumption rate normalised (2 µM): 0.515 ± 1

Structure (SMILES): C[C@@H]1O[C@@H](OC[C@H]2O[C@@H](Oc3c(-c4ccc(O)c(O)c4)oc4cc(O)cc(O)c4c3=O)[C@H](O)[C@@H](O)[C@@H]2O)[C@H](O)[C@H](O)[C@H]1O
- mitochondrial oxygen consumption rate normalised (2 µM): -1.21 ± 1.6

Structure (SMILES): CC(=O)OCC(=O)[C@@]12OC3(CCCC3)O[C@@H]1C[C@H]1[C@@H]3CCC4=CC(=O)C=C[C@]4(C)[C@@]3(F)[C@@H](O)C[C@@]12C
- mitochondrial oxygen consumption rate normalised (2 µM): 0.0223 ± 1.8

Structure (SMILES): Cc1oc(=O)oc1CN1CCN(c2cc3c(cc2F)c(=O)c(C(=O)O)c2n3C(C)S2)CC1 (centres undefined)
- mitochondrial oxygen consumption rate normalised (2 µM): -0.346 ± 0.13
- mitochondrial oxygen consumption rate normalised (10 µM): 0.0314 ± 0.4

Structure (SMILES): C=COCC(F)(F)F
- mitochondrial oxygen consumption rate normalised (2 µM): -0.243 ± 0.17

Structure (SMILES): N[C@@H](CC(=O)N1CCn2c(nnc2C(F)(F)F)C1)Cc1cc(F)c(F)cc1F
- mitochondrial oxygen consumption rate normalised (2 µM): -0.249 ± 0.83

Structure (SMILES): CC1(C)[C@@H](O)CC[C@]2(C)[C@H]3C(=O)C=C4[C@@H]5C[C@@](C)(C(=O)O)CC[C@]5(C)CC[C@@]4(C)[C@]3(C)CC[C@@H]12
- mitochondrial oxygen consumption rate normalised (2 µM): 0.119 ± 0.26

Structure (SMILES): C[C@]12CCC(=O)C=C1C=C[C@@H]1[C@@H]2CC[C@@]2(C)[C@H]1CC[C@@]21CCC(=O)O1
- mitochondrial oxygen consumption rate normalised (2 µM): 0.573 ± 1.6

Structure (SMILES): CN1C(C(=O)Nc2ccccn2)=C(O)c2ccccc2S1(=O)=O
- mitochondrial oxygen consumption rate normalised (2 µM): -0.0962 ± 0.26
